{"source": "patent US20260335468A1", "about": "“MOLECULAR RADIOAFTERGLOW PROBES FOR CANCER RADIODYNAMIC THERANOSTICS” (NANYANG TECHNOLOGICAL UNIVERSITY, priority 2023, published 2026)", "test": "In vivo limit of detection of subcutaneously injected IDPASu (radio afterglow)", "design": "species or system mouse (BALB/c nude)", "settings": "y = a + b*x, radio afterglow intensity versus IDPASu concentration", "procedure": "To test the LOD of IDPASu for in vivo RAI, 20 μl of the mixture solution of IDPASu at different concentrations (100.0, 50.0, 20.0, 10.0, 5.0, 1.0, 0.5 and 0 μM) and solubilizing agent (2-carboxyethyl)-o-cyclodextrin sodium salt (β-CD) at 100 μM was subcutaneously injected into the left flank of BALB/c nude mice (six weeks old). After 30 min, the left flank of mice were irradiated with X-rays at 5 mGy (250 μGy s^−1 for 20 s) as the other areas were protected by a 3.4-mm-thick lead shield with a notch under the X-ray irradiation. Radio afterglow signals were recorded. The detection limit was calculated using this equation: LOD=3σ/k, where a represents the s.d. of blank and k implies the slope of the radio afterglow intensities."}
{"smiles": "COC(=C1C2CC3CC(C2)CC1C3)c1cc(O)c(I)cc1/C=C/C1=CC(=C(C#N)C#N)c2ccccc2S1", "note": "[IDPASu]", "values": [{"measurement": "linear regression of FIG. 13b: Slope", "value": "18319.0083 ± 307.5"}]}
